Experimental findings from PubChem BioAssay AID248 (DTP/NCI, 2004) are described below.

In this assay the test system is L1210 leukemia ip in BDF1 mice, survival T/C. Kind of assay: NCI In Vivo Anticancer Drug Screen. Data for tumor model L1210 Leukemia (intraperitoneal) in B6D2F1 (BDF1) mice. The note with it: T/C endpoint: mean survival time, higher T/C = longer survival.
Where [1] appears, read: dose: 25.0 mg/kg/injection, schedule: Q01DX009 (ip), vehicle: saline.
[2] abbreviates: dose: 50.0 mg/kg/injection, schedule: Q01DX001 (ip), vehicle: carboxymethylcellulose (CMC).
The mark [3] stands for this setting: dose: 100.0 mg/kg/injection, schedule: Q04DX003 (ip), vehicle: saline.
[4] abbreviates: dose: 200.0 mg/kg/injection, schedule: Q04DX003 (ip), vehicle: saline.
[5] abbreviates: dose: 400.0 mg/kg/injection, schedule: Q01DX009 (ip), vehicle: saline with Tween-80.
The mark [6] stands for this setting: dose: 400.0 mg/kg/injection, schedule: Q01DX009 (ip), vehicle: Klucel (hydroxypropylcellulose) (HPC).
Where [7] appears, read: dose: 400.0 mg/kg/injection, schedule: Q04DX002 (ip), vehicle: Klucel (hydroxypropylcellulose) (HPC).
Setting [8] is: dose: 400.0 mg/kg/injection, schedule: Q04DX003 (ip), vehicle: saline with Tween-80.
The mark [9] stands for this setting: dose: 200.0 mg/kg/injection, schedule: Q01DX009 (ip), vehicle: other.
Where [10] appears, read: dose: 200.0 mg/kg/injection, schedule: Q01DX009 (ip), vehicle: saline with Tween-80.
[11] abbreviates: dose: 400.0 mg/kg/injection, schedule: Q01DX009 (ip), vehicle: other.

Each structure is given as a SMILES string. The list does not hold the whole screen: it gathers tests that were run many times, whatever their T/C, doses with no T/C, and many T/C values between a quarter and a half above the control. Further doses and runs are listed elsewhere. T/C: endpoint of the treated group in % of that of the vehicle group. Some doses have a count of surviving animals in place of a T/C: the source holds a T/C of zero for them, seemingly a mark for toxic or unscored doses. Some doses without a T/C left all or most animals alive at the check, yet need not have been tolerated: the source hardly ever lists a survival T/C far under the control, and the zero likely stands for such cases as well. Survivors were counted at the toxicity check, usually on the fifth day, unless a day is given; later deaths do not show. Schedules are NCI's codes, taken here to give the interval after Q, in days (D) or hours (H), and the number of doses after X. Some schedule codes hold Z or #, which are not explained here. Some molecules as drawn cover several salts, stereoisomers or complexes of the source; a dose is that of the sample tested. Where survival is the endpoint, this PubChem deposit counts one and a half times the control or more as active, and values a quarter to a half above the control carry no call in these data; other NCI protocols may use other cut-offs. Some T/C values carry the count of animals alive at the toxicity check (mostly the fifth day); without a count, all were alive then.

For `COc1cc(C=Nc2cccc(Br)c2)ccc1N(CCCl)CCCl`, the T/C reads like this: (dose: 5.0 mg/kg/injection, schedule: Q01DX015 (ip), vehicle: carboxymethylcellulose (CMC)) 145 % of control; (dose: 9.0 mg/kg/injection, schedule: Q01DX015 (ip), vehicle: carboxymethylcellulose (CMC)) 130 % of control; (dose: 15.0 mg/kg/injection, schedule: Q01DX015 (ip), vehicle: carboxymethylcellulose (CMC)) 147 % of control; under setting [1], 131 % of control; (dose: 25.0 mg/kg/injection, schedule: Q01DX015 (ip), vehicle: carboxymethylcellulose (CMC)) 136 % of control; under setting [2], 127 % of control. In addition, under “dose: 75.0 mg/kg/injection, schedule: Q01DX001 (ip), vehicle: carboxymethylcellulose (CMC)”, the T/C is 130 % of control [3 of 4 alive]. Moreover, the survivor count reads like this: (dose: 35.0 mg/kg/injection, schedule: Q01DX015 (ip), vehicle: carboxymethylcellulose (CMC)) 6 of 6; (dose: 55.0 mg/kg/injection, schedule: Q01DX015 (ip), vehicle: carboxymethylcellulose (CMC)) 1 of 6; (dose: 80.0 mg/kg/injection, schedule: Q01DX015 (ip), vehicle: carboxymethylcellulose (CMC)) 0 of 6; under setting [3], 5 of 6; under setting [4], 0 of 6; (dose: 400.0 mg/kg/injection, schedule: Q04DX003 (ip), vehicle: saline) 0 of 6.
Take `O=C(O)c1cccc([N+](=O)[O-])c1C(=O)O`: the survivor count under setting [5] is given as 0 of 3.
For the molecule `CNC(=O)c1cnc(SC)nc1N`, for the setting “dose: 400.0 mg/kg/injection, schedule: Q01DX001 (ip), vehicle: Klucel (hydroxypropylcellulose) (HPC)”, the survivor count is recorded as 0 of 6.
Regarding `C[CH2][Sn]([CH2]C)([O]S(C)(=O)=O)[O]S(C)(=O)=O`, the survivor count under setting [1] is on record as 2 of 6.
In the case of `CNC(=O)Oc1ccc(/C=N/NC(=O)c2ccncc2)cc1OC`, under setting [6], the survivor count is on record as 5 of 6.
With `CCN=C(NCC)c1ccc(NC(=O)c2ccc(C(=O)Nc3ccc(C(=NCC)NCC)cc3)cc2)cc1`, the T/C was 134 % of control (dose: 3.75 mg/kg/injection, schedule: Q01DX Z (ip), vehicle: saline) and 129 % of control (dose: 500.0 mg/kg/injection, schedule: Q## X010 (oral), vehicle: saline). Besides, the survivor count runs as follows: (dose: 30.0 mg/kg/injection, schedule: Q01DX Z (ip), vehicle: saline) 6 of 6; (dose: 60.0 mg/kg/injection, schedule: Q01DX Z (ip), vehicle: saline) 0 of 6; (dose: 120.0 mg/kg/injection, schedule: Q01DX Z (ip), vehicle: saline) 0 of 6.
As for `N=C(N)c1ccc(C(=N)N)cc1`, for the setting “dose: 200.0 mg/kg/injection, schedule: Q01DX009 (ip), vehicle: water”, the survivor count is 0 of 6.
In the case of `Cc1cccc(OCC(O)CN(Cc2ccsc2)c2ccccn2)c1` (centres undefined), under setting [7], the survivor count is 0 of 3.
For `CC(O)c1ccc[n+](CCc2cn(C)c3ccccc23)c1` (centres undefined), the survivor count was 1 of 6 (dose: 100.0 mg/kg/injection, schedule: Q04DX003 (ip), vehicle: saline with Tween-80); 0 of 6 (dose: 200.0 mg/kg/injection, schedule: Q04DX003 (ip), vehicle: saline with Tween-80); 0 of 6 under setting [8].
Consider `Cc1cc(NC(=O)c2ccc(C(=O)Nc3cc(C)nc4ccccc34)cc2)c2ccccc2n1`, for which the survivor count is, setting by setting: (dose: 200.0 mg/kg/injection, schedule: Q01DX001 (ip), vehicle: other) 2 of 6; (dose: 400.0 mg/kg/injection, schedule: Q01DX001 (ip), vehicle: other) 0 of 6.
As for `Cc1ccc(N=NN(C)CC#N)cc1`, the survivor count reads like this: (dose: 200.0 mg/kg/injection, schedule: Q04DX003 (ip), vehicle: other) 2 of 6; (dose: 400.0 mg/kg/injection, schedule: Q04DX003 (ip), vehicle: other) 0 of 6.
Regarding `CCOC(=O)CN1C(=O)CN=C(c2ccccn2)c2cc(Cl)ccc21`, the survivor count under setting [5] is given as 5 of 6.
Take `CCN(CC)CC1CO1` (centres undefined): the survivor count (dose: 30.0 mg/kg/injection, schedule: Q01DX009 (ip), vehicle: saline) is 0 of 6.
Consider `CCOc1cc(/C=N\NC(=O)CCCC(=O)N/N=C/c2ccc(O)c(OCC)c2)ccc1O`, for which the survivor count is given as 4 of 4 under setting [2]; 4 of 4 (dose: 100.0 mg/kg/injection, schedule: Q01DX001 (ip), vehicle: carboxymethylcellulose (CMC)); 4 of 4 (dose: 400.0 mg/kg/injection, schedule: Q01DX001 (ip), vehicle: carboxymethylcellulose (CMC)).
As to `COc1cc2cc3cc4cc(OC)c(OC)cc4c(C)[n+]3cc2cc1OC` (tested in a mixture with another compound), the T/C (dose: 20.0 mg/kg/injection, schedule: Q01DX009 (ip), vehicle: saline) is 130 % of control [5 of 6 alive]. The survivor count (dose: 160.0 mg/kg/injection, schedule: Q01DX009 (ip), vehicle: saline) is on record as 5 of 6.
On to `Clc1nc(I)c(Cl)c(I)n1`, for which the survivor count is, setting by setting: (dose: 50.0 mg/kg/injection, schedule: Q01DX009 (ip), vehicle: other) 0 of 3; (dose: 100.0 mg/kg/injection, schedule: Q01DX009 (ip), vehicle: other) 0 of 3; under setting [9], 0 of 3.
`C/C=C(/Cl)c1c(C)cc(C)c(CC(=O)O)c1C`: under setting [6], the survivor count is 6 of 6.
Consider `O=C(O)c1cc(-c2cccc(C(F)(F)F)c2)nc2c(C(F)(F)F)cccc12`, for which the survivor count runs as follows: under setting [10], 2 of 6; under setting [8], 0 of 6.
For `CCc1ncc(N2C3CCCC2CC(=O)C3)[nH]1`, the survivor count (dose: 300.0 mg/kg/injection, schedule: Q01DX001 (ip), vehicle: saline) is reported as 2 of 6.
As to `CN(C)c1ccnc(Cl)n1`, the survivor count (dose: 500.0 mg/kg/injection, schedule: Q01DX Z (ip), vehicle: methylcellulose (MC)) is 0 of 6.
`O=C(O)c1cc(Br)cc(I)c1Cl`: under setting [7], the survivor count is 1 of 3.
As for `CC(=O)Nc1cc2ccccc2[n+](C)c1`, the survivor count reads like this: (dose: 100.0 mg/kg/injection, schedule: Q04DX003 (ip), vehicle: Klucel (hydroxypropylcellulose) (HPC)) 1 of 6; (dose: 200.0 mg/kg/injection, schedule: Q04DX003 (ip), vehicle: Klucel (hydroxypropylcellulose) (HPC)) 6 of 6; (dose: 400.0 mg/kg/injection, schedule: Q04DX003 (ip), vehicle: Klucel (hydroxypropylcellulose) (HPC)) 4 of 6.
Turning to `NNC(=O)C1CC1`, the survivor count was 3 of 6 under setting [3] and 0 of 6 under setting [4].
As for `N#Cc1ccsc1C#N`, the survivor count is, setting by setting: (dose: 200.0 mg/kg/injection, schedule: Q04DX003 (ip), vehicle: acetone) 6 of 6; (dose: 400.0 mg/kg/injection, schedule: Q04DX003 (ip), vehicle: acetone) 5 of 6.
For the molecule `Nc1cccc2cn[nH]c12`, under setting [11], the survivor count is reported as 3 of 6.
Take `C=CC[P+](Cc1cccc(C)c1)(c1ccccc1)c1ccccc1`: the survivor count by setting is: (dose: 3.13 mg/kg/injection, schedule: Q01DX009 (ip), vehicle: saline with Tween-80) 1 of 3; (dose: 12.5 mg/kg/injection, schedule: Q01DX009 (ip), vehicle: saline with Tween-80) 1 of 3; (dose: 25.0 mg/kg/injection, schedule: Q01DX009 (ip), vehicle: saline with Tween-80) 0 of 3; (dose: 50.0 mg/kg/injection, schedule: Q01DX009 (ip), vehicle: saline with Tween-80) 0 of 3; (dose: 100.0 mg/kg/injection, schedule: Q01DX009 (ip), vehicle: saline with Tween-80) 0 of 3; under setting [10], 0 of 3.
With `C[S+](C)Cc1ccccc1`, the survivor count is, setting by setting: under setting [9], 3 of 6; under setting [4], 0 of 6; under setting [11], 0 of 6.
